Experimental data from patent publication US20250043349A1, “DEORPHANIZING ODORS USING SINGLE CELL SEQUENCING” (PRESIDENT AND FELLOWS OF HARVARD COLLEGE, priority 2021, published 2025).
Some of these results come from one statement about several compounds together.

Tested on: OSN subtypes (odorant receptors, ORs)
Test: Act-Seq: scSeq of olfactory epithelium after two-hour odor exposure (IEG expression, activated ORs, activation score)
Assay type: in vivo, mouse
Settings: assessed by immediate early gene (IEG) expression
Protocol: Act-Seq (Wu et al., 2017) was performed following odor exposure to quantify odor-evoked responses in each OSN subtype (defined by their expressed OR) across the entire OR repertoire. Mice were habituated to a reversed light cycle for at least for 1 week before odor exposure, transferred to a new disposable cage with regular bedding/food and kept overnight in a satellite animal facility. On the experimental day, each mouse was first transferred to a new empty disposable cage during the dark cycle and habituated for 20 minutes. Empty cages were used to avoid any activation by odorants present within the environments in which the mice were housed. Odors were added to a piece of filter paper (100 μL of odorant) in a 35 mm petri dish and a cotton ball (200 μL of odorant) and placed in each cage. After 2 hours, mice were euthanized, and dissociation was performed as described below. Odors used in this study were as follows. […]
OSN subtypes that were responsive to odorants were identified via a two-step process. First, individual OSNs (as defined by the expressed OR) were determined as activated based on their mean z-scored immediate early genes (IEG) expression. […] The set of 10 IEGs was used since even though all of the IEGs were specific to acute activation by odors, they were still only detected in a minority of cells due to the sparse nature of scSeq. […]

Row | SMILES | subset of ORs activated, of total ORs
1 | CCCCCCCC=O [octanal] | 12-13%
2 | CC(=O)c1ccccc1 [acetophenone] | 12-13%
